From patent publication US6406917B1, “Methods and compositions for the use of apurinic/apyrimidinic endonucleases” (Advanced Research And Technology Institute, priority 1996, dated 2002)
At least one structure is not confirmed: it was looked up by name or label, or the drawing left a doubt.

Columns and labels:
Assay type in all cases: cell-based, human
HL-60-bcl-2 cells [1] = experiment: Northern blot of APE mRNA after differentiation induction; settings: 10^-5 M RA, 1.25% DMSO or 100 nM PMA
Experimental: (§1) FIG. 7A and FIG. 7B: Expression of APE in HL-60-bcl-2 cells. FIG. 7A, HL-60-bcl-2 cells at 0, 2, 4, and 6 days after treatment with 10^−5 M RA or 1.25% DMSO, Western blot (top) probed with an affinity purified polyclonal rabbit anti-APE antibody. Northern blots (middle and bottom) probed for the 1.6 Kb APE and GAPDH transcripts. FIG. 7B, HL-60-bcl-2 cells treated with 100 nM PMA.
(§2) To ascertain whether APE expression was associated with differentiation or programmed cell death, the inventor blocked apoptosis by over-expression of the proto-oncogene bcl-2 using HL-60 cells transduced with the retroviral construct LbcI2SN (Park et al, 1994). […] The apparent decrease in APE transcript expression after 6 days exposure to RA or DMSO results from loading differences as evidenced by the GAPDH Northern control blot (FIG. 7). […] Thus constitutive expression of bcl-2 inhibits the decrease in APE expression as well as programmed cell death normally observed with granulocytic or monocytic/macrophage induced differentiation of HL-60 cells.

HL-60-bcl-2 cells [2] = experiment: Western blot of APE protein expression after differentiation induction; settings: 10^-5 M RA, 1.25% DMSO or 100 nM PMA, compared to parental HL-60
Experimental: as §1, §2

HL-60 cells = experiment: as above; settings: 10^-5 M RA or 1.25% DMSO, over 6 days, compared to ethanol treated controls
Experimental: FIG. 6A and FIG. 6B: Expression of APE in HL-60 cells. FIG. 6A, HL-60 cells at 0, 2, 4, and 6 days after treatment with 10^−5 M RA or 1.25% DMSO, Western blot (top) probed with an affinity purified polyclonal rabbit anti-APE antibody which detects the 37,000 Daltons human APE. Northern blots (middle and bottom) probed for the 1.6 Kb APE mRNA and GAPDH transcripts. FIG. 6B, HL-60 cells treated with 100 nM PMA.
Western blot analysis was performed as has been previously described (Wilson et al., 1994; 1995, FIG. 16). Whole cell extracts were electrophoresed on a 12% SDS-PAGE and electroblotted onto 0.2 micron nitrocellulose. The filter was incubated in blocking buffer which contains 5% non-fat milk for 1 hour. Next, the antibody (affinity purified APE) was diluted to the appropriate concentration (1:100) and incubated with the filter overnight at 4° C. The filter was washed in 1×TBST and incubated in TBST containing 5% milk and cross-reacting proteins were detected using the Chemiluminescence Western Blotting Kit from Boehringer-Mannheim (Indianapolis, Ind.) as directed. Western blot analysis of HeLa cell (human) or NIH3T3 (mouse) cells using antibody produced in rabbits or chickens are shown in FIG. 16. The antibodies were affinity purified and only a single cross-reacting protein is visible in the human or mouse cells. […]

With CC1=C(/C=C/C(C)=C/C=C/C(C)=C/C(=O)O)C(C)(C)CCC1 [RA, Retinoic Acid] the “APE mRNA expression (Northern blot)” value (HL-60-bcl-2 cells [1]) was “similarly maintained”, the “APE protein expression (Western blot)” value (HL-60-bcl-2 cells [2]) was “continuous expression” and the “APE protein expression (Western blot)” value (HL-60 cells) was “progressive decrease”.
